Experimental data: PubChem BioAssay AID1259254 (NCATS, 2017)

Screen: 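Finding genes that stop cells copying their DNA twice in one cycle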 (primary screen)
System: human HCT116 colorectal cancer cells
Reagents: single siRNA against human genes
Duration: 3 days
Detection: 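Imaged Hoechst DNA stain sorts each cell into a cycle phase by DNA amount; per plate, G2 fraction set to 0% for non-targeting and 100% for GMNN siRNA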
Reading the numbers: G2 robust z-score and G2 cells, % of GMNN control: higher = more G2 cells, more excess DNA replication
Active means: 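Active siRNAs have a G2 robust z of 5 or more median absolute deviations over the median, which in these data means about 38% or higher of GMNN control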
The deposit covers about 59,000 reagents; shown is an unselected part. About 1,550 of them (2.6%) were called active. 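G2 share is only a proxy for re-replication; each gene was hit by three separate siRNAs, and active genes were retested.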 Reagents against one gene are numbered here. Not all columns of the deposit are shown. Not given: the amount of reagent.

CDC14B (GeneID 8555) #1
- G2 robust z-score: 0.532
- G2 cells, % of GMNN control: 6.71
- Call: inactive

CDC14B (GeneID 8555) #2
- G2 robust z-score: -0.402
- G2 cells, % of GMNN control: 0.137
- Call: inactive

CDC14B (GeneID 8555) #3
- G2 robust z-score: -0.0856
- G2 cells, % of GMNN control: 2.37
- Call: inactive

HLA-DQB2 (GeneID 3120) #1
- G2 robust z-score: 0.276
- G2 cells, % of GMNN control: 4.91
- Call: inactive

HLA-DQB2 (GeneID 3120) #2
- G2 robust z-score: 0.872
- G2 cells, % of GMNN control: 9.1
- Call: inactive

HLA-DQB2 (GeneID 3120) #3
- G2 robust z-score: 0.682
- G2 cells, % of GMNN control: 7.76
- Call: inactive

PSMD5 (GeneID 5711) #1
- G2 robust z-score: -0.177
- G2 cells, % of GMNN control: 1.72
- Call: inactive

PSMD5 (GeneID 5711) #2
- G2 robust z-score: 0.0596
- G2 cells, % of GMNN control: 3.39
- Call: inactive

PSMD5 (GeneID 5711) #3
- G2 robust z-score: 1.31
- G2 cells, % of GMNN control: 12.2
- Call: inactive

IFT74 (GeneID 80173) #1
- G2 robust z-score: -0.494
- G2 cells, % of GMNN control: -0.509
- Call: inactive

IFT74 (GeneID 80173) #2
- G2 robust z-score: 0.168
- G2 cells, % of GMNN control: 4.15
- Call: inactive

IFT74 (GeneID 80173) #3
- G2 robust z-score: 1.16
- G2 cells, % of GMNN control: 11.1
- Call: inactive

Part of the list above, reformatted:
{"Gene": "PSMD5 (GeneID 5711)", "reagent": 3, "G2 robust z-score": 1.31, "G2 cells, % of GMNN control": 12.2, "Call": "inactive"}
{"Gene": "IFT74 (GeneID 80173)", "reagent": 1, "G2 robust z-score": -0.494, "G2 cells, % of GMNN control": -0.509, "Call": "inactive"}
